# Data as given in PubChem BioAssay AID1159584 (Peter MacCallum Cancer Centre, 2016).
# Assay: 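Genes that CDH1-null MCF10A cells selectively depend on to survive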 (primary screen)
# Cell system: human MCF10A breast epithelial cells, parental and CDH1-null
# Reagents: siRNA against human genes
# Detection: 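ATP luminescence (CellTiter-Glo) viability per line relative to mean mock wells over all plates, and the ratio of CDH1-null to parental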
# Reading the numbers: CDH1-null / parental viability ratio: higher = CDH1-null cells survive relatively better than parental; CDH1-null viability vs mock: higher = more viable CDH1-null cells; parental viability vs mock: higher = more viable parental cells
# Here is an unselected part of about 18,000 reagents. Not given: the amount of reagent, the time to read-out.
gene symbol,PubChem SID,CDH1-null / parental viability ratio,CDH1-null viability vs mock (fraction of mock),parental viability vs mock (fraction of mock)
ABCA9,SID152151766,0.96,1.12,1.17
FAM162A,SID135623183,0.93,0.86,0.92
BRINP3,SID135625066,0.87,0.86,0.99
INSL6,SID134323450,1.1,0.66,0.6
FBXO32,SID135622438,0.86,0.55,0.64
TBC1D2B,SID134318305,0.96,0.67,0.7
RCBTB1,SID152150328,1.08,0.82,0.76
RASSF6,SID134322323,0.81,0.62,0.77
IL22RA2,SID152150471,0.88,0.56,0.64

5 successive entries from above, quoted:
gene symbol,PubChem SID,CDH1-null / parental viability ratio,CDH1-null viability vs mock (fraction of mock),parental viability vs mock (fraction of mock)
ABCA9,SID152151766,0.96,1.12,1.17
FAM162A,SID135623183,0.93,0.86,0.92
BRINP3,SID135625066,0.87,0.86,0.99
INSL6,SID134323450,1.1,0.66,0.6
FBXO32,SID135622438,0.86,0.55,0.64

More records:
gene symbol,PubChem SID,CDH1-null / parental viability ratio,CDH1-null viability vs mock (fraction of mock),parental viability vs mock (fraction of mock)
HEPN1,SID135625421,1.12,0.95,0.85
POMC,SID152152874,1.09,0.97,0.89
NDRG4,SID135622624,1.05,1.04,0.99
MYEF2,SID152146850,0.86,0.5,0.58
SOCS6,SID135623321,1.04,0.8,0.77
PEA15,SID134315052,1.03,1.01,0.98
DDX59,SID135621861,1.05,0.82,0.78
STOML2,SID134324210,1,0.65,0.65
NRSN2,SID135622759,1.25,0.9,0.72
GPR151,SID152149689,0.78,0.79,1.01
TRIM64B,SID152147731,0.7,0.5,0.71
RPS6KA2,SID135620862,0.98,0.55,0.56
IGFBP4,SID152152069,0.81,0.57,0.7
FETUB,SID152155276,1.17,0.91,0.78
MYC,SID135620654,1.59,0.51,0.32
LDB1,SID152148377,1.2,1.08,0.9
TMEFF2,SID134315147,0.78,0.6,0.77
CCNL1,SID135621619,1.19,0.81,0.68
OR2K2,SID135624545,1.46,0.7,0.48
